Results from publication PMC12866847.

Legend:
[1] = test system: MBP-ZmWRKY44-FLAG (Zea mays (B73)); assay: competition with a labelled probe; settings: unlabelled intact probe disrupts binding to N1, EMSA: 25 °C, 20 min, Beyotime GS009 chemiluminescent EMSA kit, native PAGE, salt and pH not stated, recombinant protein, protein details: His-MBP N-term
[2] = test system: MBP-ZmWRKY44-FLAG (Zea mays (B73)); assay: EMSA; settings: EMSA: 25 °C, 20 min, Beyotime GS009 chemiluminescent EMSA kit, native PAGE, salt and pH not stated, recombinant protein, protein details: His-MBP N-term, label: biotin

Sequence | binding result [1] | binding result [2]
TCTCCTCGGCGGCGGCTTTTGACGGCTCCTTTTCCTGGCTCC (double strand) [CGTCAA-Comp (unlabelled W-box competitor)] | binds | –
TCTCCTCGGCGGCGGCTTTTGACGGCTCCTTTTCCTGGCTCC (double strand) [CGTCAA-Biotin (W-box probe, ZmRRS1 promoter)] | – | binds
TCTCCTCGGCGGCGGCTTAAAAAAGCTCCTTTTCCTGGCTCC (double strand) [AAAAAA-mBiotin (mutated W-box probe)] | – | no binding

The exact form of at least one protein or probe is not confirmed. For part of these data: Negatives hold for the conditions tested.
